Measured values published in US20240424125A1.
No constants are given. Whether binding was seen depends on the method and setting.

Target: T1, COL6A2 isoform 2C2A (human) (UniProt P12110)
T1 sequence (looked up): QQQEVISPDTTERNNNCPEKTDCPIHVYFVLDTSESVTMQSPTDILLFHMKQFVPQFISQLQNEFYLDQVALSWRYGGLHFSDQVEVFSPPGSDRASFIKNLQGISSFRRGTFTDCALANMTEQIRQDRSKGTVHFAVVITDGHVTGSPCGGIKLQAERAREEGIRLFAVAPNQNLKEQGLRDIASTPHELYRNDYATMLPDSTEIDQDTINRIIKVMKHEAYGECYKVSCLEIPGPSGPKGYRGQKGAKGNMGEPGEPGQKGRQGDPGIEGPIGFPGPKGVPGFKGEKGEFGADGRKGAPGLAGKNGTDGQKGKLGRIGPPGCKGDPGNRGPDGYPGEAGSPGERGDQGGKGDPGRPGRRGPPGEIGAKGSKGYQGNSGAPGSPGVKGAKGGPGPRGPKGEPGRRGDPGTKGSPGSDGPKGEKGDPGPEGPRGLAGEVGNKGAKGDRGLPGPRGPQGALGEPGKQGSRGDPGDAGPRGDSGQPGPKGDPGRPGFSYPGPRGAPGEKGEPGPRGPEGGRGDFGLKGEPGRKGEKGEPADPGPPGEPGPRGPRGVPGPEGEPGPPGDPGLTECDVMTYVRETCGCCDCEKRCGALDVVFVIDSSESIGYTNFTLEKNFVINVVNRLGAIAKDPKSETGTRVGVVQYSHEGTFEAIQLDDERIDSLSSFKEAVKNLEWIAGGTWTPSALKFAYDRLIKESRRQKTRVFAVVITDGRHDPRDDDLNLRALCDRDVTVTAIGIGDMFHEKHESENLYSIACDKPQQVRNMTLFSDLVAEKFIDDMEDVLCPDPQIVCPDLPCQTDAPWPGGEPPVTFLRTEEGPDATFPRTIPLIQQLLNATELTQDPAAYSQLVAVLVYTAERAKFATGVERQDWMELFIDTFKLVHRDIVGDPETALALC
Assay: Retrogenix cell microarray, live cell confirmation screen; live cell screen

B1: v35356 (antibody, human IgG1, kappa, V domains shown)
VH: EVQLLESGGGLVQPGGSLRLSCAVSGFSLSSYGVSWVRQAPGKGLEWIGAVNSGGSAYYADSFKGRSTISRDNSKNTVYLQMNSLRAEDTAVYYCARSGSGYPMDYHPIWGQGTLVTVSS
VL: DYQMTQSPSSVSASVGDRVTITCRASQSIGDWLAWYQQKPGKAPKLLIYEASTLASGVPSRFSGSGSGTDFTLTISSVQPEDAATYYCQQGYGRWHILNIFGGGTKVEVKR
binding: no binding (tested: 5 µg/mL)
